From publication PMC8222394 (Nature Communications, 2021) come the findings set out here.

Chains of the proteins cited; added tags and fusions are not shown.
UniProt O15393: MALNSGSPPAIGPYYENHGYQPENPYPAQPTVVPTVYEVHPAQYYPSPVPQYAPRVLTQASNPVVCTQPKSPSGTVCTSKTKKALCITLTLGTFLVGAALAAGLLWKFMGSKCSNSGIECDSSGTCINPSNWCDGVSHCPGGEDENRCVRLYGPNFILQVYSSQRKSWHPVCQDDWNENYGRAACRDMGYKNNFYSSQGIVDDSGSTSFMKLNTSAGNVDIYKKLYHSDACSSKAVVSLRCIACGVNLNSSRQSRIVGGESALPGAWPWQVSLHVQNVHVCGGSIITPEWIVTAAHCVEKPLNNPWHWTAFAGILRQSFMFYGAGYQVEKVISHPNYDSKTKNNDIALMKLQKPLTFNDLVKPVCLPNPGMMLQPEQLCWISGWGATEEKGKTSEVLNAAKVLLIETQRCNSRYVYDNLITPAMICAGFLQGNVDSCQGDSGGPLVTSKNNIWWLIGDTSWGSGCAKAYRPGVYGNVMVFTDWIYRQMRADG
UniProt Q9Y4B6: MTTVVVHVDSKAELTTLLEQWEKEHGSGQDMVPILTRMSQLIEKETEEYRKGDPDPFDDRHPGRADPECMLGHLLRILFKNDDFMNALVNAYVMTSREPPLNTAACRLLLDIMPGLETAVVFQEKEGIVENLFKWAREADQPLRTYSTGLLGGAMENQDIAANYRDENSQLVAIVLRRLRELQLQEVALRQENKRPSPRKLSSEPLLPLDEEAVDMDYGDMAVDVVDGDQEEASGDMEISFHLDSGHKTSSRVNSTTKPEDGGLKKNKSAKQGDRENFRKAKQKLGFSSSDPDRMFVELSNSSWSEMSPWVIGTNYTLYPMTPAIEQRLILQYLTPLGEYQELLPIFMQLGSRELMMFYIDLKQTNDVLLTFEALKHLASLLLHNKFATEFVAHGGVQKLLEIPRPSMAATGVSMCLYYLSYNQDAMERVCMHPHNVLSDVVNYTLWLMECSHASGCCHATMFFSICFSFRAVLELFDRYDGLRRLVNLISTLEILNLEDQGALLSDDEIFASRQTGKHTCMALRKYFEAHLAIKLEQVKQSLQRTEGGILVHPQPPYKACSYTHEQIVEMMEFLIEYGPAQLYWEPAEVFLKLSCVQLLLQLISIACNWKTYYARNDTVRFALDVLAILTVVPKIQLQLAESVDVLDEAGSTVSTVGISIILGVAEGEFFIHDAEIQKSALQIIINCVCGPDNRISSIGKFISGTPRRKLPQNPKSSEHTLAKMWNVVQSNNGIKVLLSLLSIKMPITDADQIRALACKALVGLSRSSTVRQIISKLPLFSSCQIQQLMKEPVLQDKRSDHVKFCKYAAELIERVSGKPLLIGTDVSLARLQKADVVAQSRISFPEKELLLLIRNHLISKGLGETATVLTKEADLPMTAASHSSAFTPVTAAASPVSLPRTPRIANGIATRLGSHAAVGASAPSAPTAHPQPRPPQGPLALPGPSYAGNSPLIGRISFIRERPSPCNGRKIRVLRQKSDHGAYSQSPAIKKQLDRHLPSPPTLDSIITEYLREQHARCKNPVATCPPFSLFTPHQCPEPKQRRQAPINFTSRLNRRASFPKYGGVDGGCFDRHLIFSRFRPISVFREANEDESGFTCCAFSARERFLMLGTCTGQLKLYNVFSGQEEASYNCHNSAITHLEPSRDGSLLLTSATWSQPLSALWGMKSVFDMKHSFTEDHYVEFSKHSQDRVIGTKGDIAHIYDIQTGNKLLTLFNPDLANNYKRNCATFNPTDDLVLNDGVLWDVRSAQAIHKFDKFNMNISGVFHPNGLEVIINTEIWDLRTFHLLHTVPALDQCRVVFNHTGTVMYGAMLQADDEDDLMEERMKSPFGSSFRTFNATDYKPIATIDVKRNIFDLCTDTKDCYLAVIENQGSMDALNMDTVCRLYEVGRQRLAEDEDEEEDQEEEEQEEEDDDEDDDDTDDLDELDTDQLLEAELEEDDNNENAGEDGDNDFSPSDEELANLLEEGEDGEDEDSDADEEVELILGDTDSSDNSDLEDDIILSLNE

For the experiment, the target named is TMPRSS2 (human (endogenous in Beas-2B)) (UniProt O15393). As to the kind of experiment: proximity ligation; Duolink proximity ligation assay in Beas-2B cells fixed with 4% paraformaldehyde and permeabilised with 0.5% Triton-X-100; anti-TMPRSS2 and anti-DCAF1 antibodies overnight; controls with antibody removal; confocal imaging.

These are yes or no findings as the source states them, for the method shown. In cells and extracts the contact can be indirect. Some results given as binding are weak or reduced against the parent protein; the word gives no strength.

In the case of “DDB1- and CUL4-associated factor 1 (DCAF1) (from UniProt Q9Y4B6 1-1507)”, the binding result is given as “binds”.
